Patent US7704994B2, “Benzazepine derivatives for the treatment of neurological disorders” (Glaxo Group Limited, priority 2002, dated 2010)
Some results were stated once for a whole list of compounds, not compound by compound. Some compounds share one range, which may span the group rather than tell each member.

Protein sequences, listed by entry. Tags and fused reporters are not part of them. Lines headed by an entry give the natural chain unless they say otherwise; changes in a name come on top.
UniProt Q9Y5N1: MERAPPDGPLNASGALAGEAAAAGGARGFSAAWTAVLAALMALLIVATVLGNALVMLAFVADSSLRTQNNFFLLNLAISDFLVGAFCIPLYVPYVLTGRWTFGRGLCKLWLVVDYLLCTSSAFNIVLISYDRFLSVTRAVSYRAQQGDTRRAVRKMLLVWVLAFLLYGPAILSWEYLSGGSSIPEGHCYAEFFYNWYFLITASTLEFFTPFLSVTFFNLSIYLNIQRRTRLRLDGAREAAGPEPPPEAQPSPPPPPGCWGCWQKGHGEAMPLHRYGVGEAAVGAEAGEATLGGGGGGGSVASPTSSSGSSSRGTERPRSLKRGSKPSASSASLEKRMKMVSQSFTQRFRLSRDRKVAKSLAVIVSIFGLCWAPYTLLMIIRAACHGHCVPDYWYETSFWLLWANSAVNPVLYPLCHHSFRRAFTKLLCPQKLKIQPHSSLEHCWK

Target: T1, human histamine H3 receptor (Homo sapiens, UniProt Q9Y5N1)
T1 construct: expressed in transfected cells; host or cells: CHO K1 cells carrying pSwitch, transfected with pGeneH3 and induced with mifepristone; membranes of clone 3H3
Assay: Histamine H3 functional antagonist assay
Format: biochemical
Details: membranes of CHO K1 cells expressing human histamine H3; [35S]GTPγS SPA; histamine 0.3 μM
Description: A membrane preparation containing histamine H3 receptors may be prepared in accordance with the following procedures:
Ligated DNA was transformed into competent DH5α E. coli host bacterial cells and plated onto Luria Broth (LB) agar containing Zeocin™ (an antibiotic which allows the selection of cells expressing the sh ble gene which is present on pGene and pSwitch) at 50 μg ml^−1. Colonies containing the re-ligated plasmid were identified by restriction analysis. DNA for transfection into mammalian cells was prepared from 250 ml cultures of the host bacterium containing the pGeneH3 plasmid and isolated using a DNA preparation kit (Qiagen Midi-Prep) as per manufacturers guidelines (Qiagen).
CHO K1 cells previously transfected with the pSwitch regulatory plasmid (InVitrogen) were seeded at 2×10e6 cells per T75 flask in Complete Medium, containing Hams F12 (GIBCOBRL, Life Technologies) medium supplemented with 10% v/v dialysed foetal bovine serum, L-glutamine, and hygromycin (100 μg ml^−1), 24 hours prior to use. Plasmid DNA was transfected into the cells using Lipofectamine plus according to the manufacturers guidelines (InVitrogen). 48 hours post transfection cells were placed into complete medium supplemented with 500 μg ml^−1 Zeocin™.
10-14 days post selection 10 nM Mifepristone (InVitrogen), was added to the culture medium to induce the expression of the receptor. […] Approximately 1×10e7 cells were examined for receptor expression by staining with a rabbit polyclonal antibody, 4a, raised against the N-terminal domain of the histamine H3 receptor, incubated on ice for 60 minutes, followed by two washes in sorting medium. […] Following two further washes with Sorting Medium, cells were filtered through a 50 μm Filcon™ (BD Biosciences) and then analysed on a FACS Vantage SE Flow Cytometer fitted with an Automatic Cell Deposition Unit. […] Positively stained cells were sorted as single cells into 96-well plates, containing Complete Medium containing 500 μg ml^−1 Zeocin™ and allowed to expand before reanalysis for receptor expression via antibody and ligand binding studies.
All steps of the protocol are carried out at 4° C. and with pre-cooled reagents. […] The cells are then homogenised by 2×15 second bursts in a 1 litre glass Waring blender, followed by centrifugation at 500 g for 20 minutes. The supernatant is then spun at 48,000 g for 30 minutes. The pellet is resuspended in 4 volumes of buffer A2 by vortexing for 5 seconds, followed by homogenisation in a Dounce homogeniser (10-15 strokes). At this point the preparation is aliquoted into polypropylene tubes and stored at −70° C.
(II) Histamine H3 Functional Antagonist Assay
The plate is then incubated on a shaker at room temperature for 30 minutes followed by centrifugation for 5 minutes at 1500 rpm. The plate is read between 3 and 6 hours after completion of centrifuge run in a Wallac Microbeta counter on a 1 minute normalised tritium count protocol. Data is analysed using a 4-parameter logistic equation. Basal activity used as minimum i.e. histamine not added to well.

Row | Structure (SMILES) | antagonism (pKb)
1 | N#Cc1ccc(C(=O)N2CCC(Oc3ccc4c(c3)CCN(C3CCCC3)CC4)CC2)cc1 [Example 38, 4-{1-[4-(3-Cyclopentyl-2,3,4,5-tetrahydro-1H-benzo[d]azepin-7-yloxy)-piperidin-1-yl]-methanoyl}-benzonitrile] | 6.5-10.5 pKb
2 | O=C(c1ccncc1)N1CCC(Oc2ccc3c(c2)CCN(C2CCCC2)CC3)CC1 [Example 39, 1-[4-(3-Cyclopentyl-2,3,4,5-tetrahydro-1H-benzo[d]azepin-7-yloxy)-piperidin-1-yl]-1-pyridin-4-yl-methanone] | 6.5-10.5 pKb
3 | O=C(c1ccc2ncccc2c1)N1CCC(Oc2ccc3c(c2)CCN(C2CCCC2)CC3)CC1 [Example 40, 1-[4-(3-Cyclopentyl-2,3,4,5-tetrahydro-1H-benzo[d]azepin-7-yloxy)-piperidin-1-yl]-1-quinolin-6-yl-methanone] | 6.5-10.5 pKb
4 | O=C(c1ccc(C(=O)N2CCC(Oc3ccc4c(c3)CCN(C3CCCC3)CC4)CC2)cc1)N1CCCC1 [Example 41, 1-[4-(3-Cyclopentyl-2,3,4,5-tetrahydro-1H-benzo[d]azepin-7-yloxy)-piperidin-1-yl]-1-[4-(1-pyrrolidin-1-yl-methanoyl)-phenyl]methanone] | 6.5-10.5 pKb
5 | O=C(c1ccc(-c2ccccc2)cc1)N1CCC(Oc2ccc3c(c2)CCN(C2CCCC2)CC3)CC1 [Example 42, 1-Biphenyl-4-yl-1-[4-(3-cyclopentyl-2,3,4,5-tetrahydro-1H-benzo[d]azepin-7-yloxy)-piperidin-1-yl]-methanone] | 6.5-10.5 pKb
6 | O=C(C1CCCC1)N1CCC(Oc2ccc3c(c2)CCN(C2CCC2)CC3)CC1 [Example 43, 1-[4-(3-Cyclobutyl-2,3,4,5-tetrahydro-1H-benzo[d]azepin-7-yloxy)-piperidin-1-yl]-1-cyclopentyl-methanone] | 6.5-10.5 pKb
7 | N#Cc1ccc(C(=O)N2CCC(COc3ccc4c(c3)CCN(C3CCC3)CC4)CC2)cc1 [Example 44, 4-{1-[4-(3-Cyclobutyl-2,3,4,5-tetrahydro-1H-benzo[d]azepin-7-yloxymethyl)-piperidin-1-yl]-methanoyl}-benzonitrile] | 6.5-10.5 pKb
8 | N#Cc1ccc(C(=O)N2CCC[C@@H]2COc2ccc3c(c2)CCN(C2CCC2)CC3)cc1 [Example 45, 4-{1-[(R)-2-(3-Cyclobutyl-2,3,4,5-tetrahydro-1H-benzo[d]azepin-7-yloxymethyl)-pyrrolidin-1-yl]-methanoyl}-benzonitrile] | 6.5-10.5 pKb
9 | N#Cc1ccc(C(=O)N2CC[C@@H](Oc3ccc4c(c3)CCN(C3CCC3)CC4)C2)cc1 [Example 46, 4-{1-[(R)-3-(3-Cyclobutyl-2,3,4,5-tetrahydro-1H-benzo[d]azepin-7-yloxy)-pyrrolidin-1-yl]-methanoyl}-benzonitrile] | 6.5-10.5 pKb
10 | N#Cc1ccc(C(=O)N2CC[C@H](Oc3ccc4c(c3)CCN(C3CCC3)CC4)C2)cc1 [Example 47, 4-{1-[(S)-3-(3-Cyclobutyl-2,3,4,5-tetrahydro-1H-benzo[d]azepin-7-yloxy)-pyrrolidin-1-yl]-methanoyl}-benzonitrile] | 6.5-10.5 pKb
11 | N#Cc1ccc(C(=O)N2CCC[C@@H]2Oc2ccc3c(c2)CCN(C2CCC2)CC3)cc1 [Example 48, 4-{1-[(S)-2-(3-Cyclobutyl-2,3,4,5-tetrahydro-1H-benzo[d]azepin-7-yloxy)-pyrrolidin-1-yl]-methanoyl}-benzonitrile] | 6.5-10.5 pKb
12 | CC(C)(C)C(=O)N1CCC(Oc2ccc3c(c2)CCN(C2CCC2)CC3)CC1 [Example 49, 1-[4-(3-Cyclobutyl-2,3,4,5-tetrahydro-1H-benzo[d]azepin-7-yloxy)-piperidin-1-yl]-2,2-dimethyl-propan-1-one] | 6.5-10.5 pKb
13 | O=C(C1CC1)N1CCC(Oc2ccc3c(c2)CCN(C2CCC2)CC3)CC1 [Example 50, 1-[4-(3-Cyclobutyl-2,3,4,5-tetrahydro-1H-benzo[d]azepin-7-yloxy)-piperidin-1-yl]-1-cyclopropyl-methanone] | 6.5-10.5 pKb
14 | O=C(C1CCC1)N1CCC(Oc2ccc3c(c2)CCN(C2CCC2)CC3)CC1 [Example 51, 1-Cyclobutyl-1-[4-(3-cyclobutyl-2,3,4,5-tetrahydro-1H-benzo[d]azepin-7-yloxy)-piperidine-1-yl]-methanone] | 6.5-10.5 pKb
15 | O=C(N1CCOCC1)N1CCC(COc2ccc3c(c2)CCN(C2CCC2)CC3)CC1 [Example 53, 1-[4-(3-Cyclobutyl-2,3,4,5-tetrahydro-1H-benzo[d]azepin-7-yloxymethyl)-piperidin-1-yl]-1-morpholin-4-yl-methanone] | 6.5-10.5 pKb
16 | O=C(N1CCOCC1)N1CCC[C@@H]1COc1ccc2c(c1)CCN(C1CCC1)CC2 [Example 54, 1-[(R)-2-(3-Cyclobutyl-2,3,4,5-tetrahydro-1H-benzo[d]azepin-7-yloxymethyl)-pyrrolidin-1-yl]-1-morpholin-4-yl-methanone] | 6.5-10.5 pKb
17 | O=C(N1CCOCC1)N1CC[C@@H](Oc2ccc3c(c2)CCN(C2CCC2)CC3)C1 [Example 55, 1-[(R)-3-(3-Cyclobutyl-2,3,4,5-tetrahydro-1H-benzo[d]azepin-7-yloxy)-pyrrolidin-1-yl]-1-morpholin-4-yl-methanone] | 6.5-10.5 pKb
18 | O=C(N1CCOCC1)N1CC[C@H](Oc2ccc3c(c2)CCN(C2CCC2)CC3)C1 [Example 56, 1-[(S)-3-(3-Cyclobutyl-2,3,4,5-tetrahydro-1H-benzo[d]azepin-7-yloxy)-pyrrolidin-1-yl]-1-morpholin-4-yl-methanone] | 6.5-10.5 pKb
19 | CC(C)N(C(=O)N1CCC(Oc2ccc3c(c2)CCN(C2CCC2)CC3)CC1)C(C)C [Example 57, 4-(3-Cyclobutyl-2,3,4,5-tetrahydro-1H-benzo[d]azepin-7-yloxy)-piperidine-1-carboxylic acid diisopropylamide] | 6.5-10.5 pKb
20 | O=C(N1CCCCC1)N1CCC(Oc2ccc3c(c2)CCN(C2CCC2)CC3)CC1 [Example 59, 1-[4-(3-Cyclobutyl-2,3,4,5-tetrahydro-1H-benzo[d]azepin-7-yloxy)-piperidin-1-yl]-1-piperidin-1-yl-methanone] | 6.5-10.5 pKb
21 | O=C(N1CCOCC1)N1CCC[C@H]1COc1ccc2c(c1)CCN(C1CCC1)CC2 [Example 60, 1-[(S)-2-(3-Cyclobutyl-2,3,4,5-tetrahydro-1H-benzo[d]azepin-7-yloxymethyl)-pyrrolidin-1-yl]-1-morpholin-4-yl-methanone] | 6.5-10.5 pKb
22 | CCN(CC)C(=O)N1CCC(Oc2ccc3c(c2)CCN(C2CCC2)CC3)CC1 [Example 61, 4-(3-Cyclobutyl-2,3,4,5-tetrahydro-1H-benzo[d]azepin-7-yloxy)-piperidine-1-carboxylic acid diethylamide] | 6.5-10.5 pKb
23 | O=C(N1CCC(Oc2ccc3c(c2)CCN(C2CCC2)CC3)CC1)N1Cc2ccccc2C1 [Example 62, 1-[4-(3-Cyclobutyl-2,3,4,5-tetrahydro-1H-benzo[d]azepin-7-yloxy)-piperidin-1-yl]-1-(1,3-dihydro-isoindol-2-yl)-methanone] | 6.5-10.5 pKb
24 | O=C(N1CCC(Oc2ccc3c(c2)CCN(C2CCC2)CC3)CC1)N1CCN(c2cnccn2)CC1 [Example 63, 1-[4-(3-Cyclobutyl-2,3,4,5-tetrahydro-1H-benzo[d]azepin-7-yloxy)-piperidin-1-yl]-1-(2,3,5,6-tetrahydro-[1,2′]bipyrazinyl-4-yl)-methanone] | 6.5-10.5 pKb
25 | O=C(N1CCC(Oc2ccc3c(c2)CCN(C2CCC2)CC3)CC1)N1CCS(=O)(=O)CC1 [Example 65, 1-[4-(3-Cyclobutyl-2,3,4,5-tetrahydro-1H-benzo[d]azepin-7-yloxy)-piperidin-1-yl]-(1,1-dioxo-thiomorpholin-4-yl)-methanone] | 6.5-10.5 pKb
26 | CC(C)NC(=O)N1CCC(Oc2ccc3c(c2)CCN(C2CCC2)CC3)CC1 [Example 66, 4-(3-Cyclobutyl-2,3,4,5-tetrahydro-1H-benzo[d]azepin-7-yloxy)-piperidine-1-carboxylic acid isopropyl amide] | 6.5-10.5 pKb
